Results are given in words; binding and its absence hold for the method and conditions named. In cells and extracts the contact can be indirect. Some binding calls cover weakened binding; strength is not graded here.

Binding data for one molecule are collected here from PMC7546003.

The target in this experiment is T1, cytochrome b245 light chain/p22^phox (mouse (endogenous in RPE-choroid tissue of C57BL/6 mice)) (UniProt Q61462).
T1 sequence: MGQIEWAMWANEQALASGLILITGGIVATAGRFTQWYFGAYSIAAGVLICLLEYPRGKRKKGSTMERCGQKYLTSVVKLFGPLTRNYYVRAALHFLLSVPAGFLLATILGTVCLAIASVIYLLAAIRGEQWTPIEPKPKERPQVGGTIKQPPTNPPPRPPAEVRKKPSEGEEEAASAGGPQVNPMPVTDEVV
As to the kind of experiment: co-IP; Pierce Co-Immunoprecipitation Kit; endogenous proteins, mouse tissue taken 4 days after intravitreal injection of Aβ1-40 or PBS; antibodies for immunoprecipitation the same as for Western blot (p22^phox ab75941, NOX4 PA5-72816).

B1: NOX4 (protein, UniProt Q9JHI8 1-578)
chain: MAVSWRSWLANEGVKHLCLLIWLSLNVLLFWKTFLLYNQGPEYYYIHQMLGLGLCLSRASASVLNLNCSLILLPMCRTVLAYLRGSQKVPSRRTRRLLDKSKTLHITCGVTICIFSGVHVAAHLVNALNFSVNYSEDFLELNAARYQNEDPRKLLFTTIPGLTGVCMVVVLFLMVTASTYAIRVSNYDIFWYTHNLFFVFYMLLLLHVSGGLLKYQTNVDTHPPGCISLNQTSSQNMSIPDYVSEHFHGSLPRGFSKLEDRYQKTLVKICLEEPKFQAHFPQTWIWISGPLCLYCAERLYRCIRSNKPVTIISVINHPSDVMELRMIKENFKARPGQYIILHCPSVSALENHPFTLTMCPTETKATFGVHFKVVGDWTERFRDLLLPPSSQDSEILPFIHSRNYPKLYIDGPFGSPFEESLNYEVSLCVAGGIGVTPFASILNTLLDDWKPYKLRRLYFIWVCRDIQSFQWFADLLCVLHNKFWQENRPDFVNIQLYLSQTDGIQKIIGEKYHTLNSRLFIGRPRWKLLFDEIAKCNRGKTVGVFCCGPSSISKTLHSLSNRNNSYGTKFEYNKESFS
For the molecule B1, the binding entry is “binds”.
